According to paper PMC11745951:
These are yes or no findings as the source states them, for the method shown. In cells and extracts the contact can be indirect. Some entries that bind do so weakly or less than the wild type.

Molecular target: Heat shock protein 90α (Hsp90α) (human (endogenous in HepG2)) (UniProt P07900)
Test: co-IP; Hsp90α immunoprecipitates from HepG2 cells: 1 μg antibody with 1000 μg protein extract, 4°C overnight, Protein A + G Magnetic Beads, blot for LXRα; cells treated with STA9090 or NB

B1: Liver X receptor α (LXRα) (protein, UniProt Q13133 1-447)
chain: MSLWLGAPVPDIPPDSAVELWKPGAQDASSQAQGGSSCILREEARMPHSAGGTAGVGLEAAEPTALLTRAEPPSEPTEIRPQKRKKGPAPKMLGNELCSVCGDKASGFHYNVLSCEGCKGFFRRSVIKGAHYICHSGGHCPMDTYMRRKCQECRLRKCRQAGMREECVLSEEQIRLKKLKRQEEEQAHATSLPPRASSPPQILPQLSPEQLGMIEKLVAAQQQCNRRSFSDRLRVTPWPMAPDPHSREARQQRFAHFTELAIVSVQEIVDFAKQLPGFLQLSREDQIALLKTSAIEVMLLETSRRYNPGSESITFLKDFSYNREDFAKAGLQVEFINPIFEFSRAMNELQLNDAEFALLIAISIFSADRPNVQDQLQVERLQHTYVEALHAYVSIHHPHDRLMFPRMLMKLVSLRTLSSVHSEQVFALRLQDKKLPPLLSEIWDVHE
Q: B1 was tested. Which binding did it give?
A: The binding was “binds”.
